Laboratory results taken from PubChem BioAssay AID2551 (National Center for Advancing Translational Sciences (NCATS), 2010).
In all, about 310,000 compounds went through this assay and about 17,000 (5.5%) were called active. This list was built around the results that the source calls inconclusive (neither active nor inactive); the mix of calls is not that of the screen. The call rests on the fitted dose curve; in most records, active means well fitted inhibition curve with a large enough effect; inconclusive means small, poorly fitted or top-dose-only effect, or effect the other way; inactive means no such curve, though single readings can be large or run the other way. Potencies beside an inconclusive call are fits to weak or partial responses and may not hold up.

Amino acid sequences for entries named in this document (tags omitted). A change or cut given only in a name is not applied to a line headed by its entry.
UniProt P51450: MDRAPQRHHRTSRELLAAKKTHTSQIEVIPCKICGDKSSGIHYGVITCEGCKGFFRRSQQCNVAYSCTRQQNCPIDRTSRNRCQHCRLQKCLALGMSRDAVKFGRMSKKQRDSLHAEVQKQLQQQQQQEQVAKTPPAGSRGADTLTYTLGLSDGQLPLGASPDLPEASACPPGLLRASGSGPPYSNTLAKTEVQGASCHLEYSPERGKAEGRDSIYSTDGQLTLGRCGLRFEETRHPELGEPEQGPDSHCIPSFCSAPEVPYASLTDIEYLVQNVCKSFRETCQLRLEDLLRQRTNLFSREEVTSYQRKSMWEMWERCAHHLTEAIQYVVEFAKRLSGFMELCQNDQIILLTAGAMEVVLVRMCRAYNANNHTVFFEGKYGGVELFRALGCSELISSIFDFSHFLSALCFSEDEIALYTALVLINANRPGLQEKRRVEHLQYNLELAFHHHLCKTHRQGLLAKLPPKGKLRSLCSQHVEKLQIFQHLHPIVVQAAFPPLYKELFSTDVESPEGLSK

Biological target: Nuclear receptor ROR-gamma (Mus musculus) (UniProt P51450)
Test: qHTS for inhibitors of ROR gamma transcriptional activity; further: nearly all actives have a fitted effect of over 60% in size
Details: Drosophila S2 Gal4-RORgamma UAS-luciferase reporter, 20 h; activity change, negative = inhibition: at 53.6 µM (top of the series)
Summary of the method: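 A Gal4/UAS one-hybrid system in insect cells: metallothionein-promoter Gal4–ROR gamma fusion plus Photinus luciferase reporter. Copper sulfate 700 uM final, 20 hr ambient incubation, luminescent detection after 10 min with reagent.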
On the % scale 0 is the no-effect control and ±100 the full control effect; potency means the concentration at half of the fitted maximal effect.

Potency, active:
CN(C(=S)NC(=O)c1ccc(F)cc1)C1CCCCC1 0.891 µM
Cc1cccc(OCCn2c(=S)[nH]c3ccccc32)c1 1.26 µM
Cc1cc(C)nc(N/N=C/c2ccccc2OCc2ccccc2)n1 8.91 µM
COc1ccc(-n2ncc3c(NC(C)C)ncnc32)cc1 11.2 µM
CC(C)(C)c1cc(Cl)c(O)c(NC(=S)NC(=O)c2cccnc2)c1 0.158 µM
COC(=O)c1c(NC(=O)CCl)sc(C(=O)N2CCOCC2)c1C 10 µM
CN(C(=O)Nc1ccc(Cl)cc1Cl)[C@H]1c2cc(Br)ccc2OC[C@H]1CO 2.82 µM

Potency, inconclusive:
Cc1ccc(-c2noc(C3CCCN(C(=O)c4ccc(Cl)cc4)C3)n2)o1 (stereo unspecified) 14.1 µM [activator, single point]
CC(C)(C)n1nc2c(c1NC(=O)COc1ccc(Cl)cc1)CSC2 35.5 µM [activator, single point]
CCNC(=O)NC(=O)C(C)Sc1nc2ccccc2n1CC(C)C (stereo unspecified) 12.6 µM [activator, single point]
COc1cc(CNc2cccc3[nH]c(C(F)(F)F)nc23)cc(OC)c1 10 µM [activator, partial curve]
CCCCOc1ccc(C(=O)NCc2ccco2)cc1 15.8 µM [activator, single point]
O=C(Nc1ccc(Cl)c(Cl)c1)Nc1nnc(CC2=CCCCC2)s1 8.91 µM [activator, partial curve]
Cc1ccc(C(=O)N/N=C\c2ccc[nH]2)cn1 35.5 µM [inhibitor, single point]
CCOC(=O)CSc1nc(-c2ccccc2)ns1 0.126 µM [inhibitor, full curve, poor fit]
COc1ccccc1Nc1nnc(SCC(=O)Nc2nc(-c3ccc(F)cc3)cs2)s1 35.5 µM [inhibitor, single point]
CC(C)CCn1c(=O)c2ccccc2n2c(CCl)nnc12 7.08 µM [inhibitor, partial curve]
CCOc1ccc(S(=O)(=O)Nc2cccc(C(=O)NCC(c3ccc(OC)cc3)N3CCOCC3)c2)cc1 (stereo unspecified) 20 µM [activator, single point]
Cc1cccc(OCC(=O)NCC(=O)N/N=C/c2cc(Br)ccc2OCc2ccccc2)c1 17.8 µM [activator, single point]
CCC(=O)Nc1cccc(C(=O)OCc2cccc([N+](=O)[O-])c2)c1 10 µM [activator, single point]
Cn1nc(C(C)(C)C)cc1NC(=O)Nc1cc(Cl)cc(Cl)c1 20 µM [activator, partial curve]
COc1ccc(S(=O)(=O)N(CC(=O)Nc2ccc(S(=O)(=O)N3CCOCC3)cc2)c2ccccc2)cc1 20 µM [activator, single point]
Cc1sc(/N=C/c2ccccc2O)c(C#N)c1C 2.51 µM [activator, partial curve, poor fit]
Cn1cccc1C(=O)OCc1ccc(C(C)(C)C)cc1 31.6 µM [activator, single point]
C/C(=N\Nc1cc(C)nc(-c2ccccc2)n1)c1cccc([N+](=O)[O-])c1 0.1 µM [activator, full curve, poor fit]
CC(C)Nc1nc(NC(N)=S)nc(NC(C)C)n1 14.1 µM [inhibitor, single point]
Cn1nc(C(C)(C)C)cc1C(=O)NNC(=O)c1ccccc1Cl 20 µM [activator, single point]
Cc1nc2c([N+](=O)[O-])c(C)c(C)cc2[nH]1 35.5 µM [inhibitor, single point]
O=C(NCCCN1CCOCC1)c1ccc(/C=C2\Oc3ccccc3N(Cc3ccccc3F)C2=O)cc1 35.5 µM [inhibitor, single point]
c1ccc(-c2cc(N3CCCCC3)ncn2)cc1 11.2 µM [activator, partial curve]
Cc1cc(NS(=O)(=O)c2ccc(NC(=O)COc3ccccc3C(C)C)cc2)no1 11.2 µM [activator, partial curve]
O=C(COc1ccccc1[N+](=O)[O-])Nc1ccc(NC(=O)c2cc3ccccc3o2)cc1 35.5 µM [inhibitor, single point]
CCCS(=O)(=O)c1nc(S(=O)(=O)c2ccc(C)cc2)c(NCCN2CCOCC2)s1 0.158 µM [inhibitor, partial curve, poor fit]
O=[N+]([O-])c1ccc(NC2CCCC2)cc1 25.1 µM [activator, single point]
CCc1ccc(NC(=O)C2CCCN(S(=O)(=O)c3ccc4[nH]c(=O)ccc4c3)C2)cc1 (stereo unspecified) 35.5 µM [inhibitor, single point]

Random excerpt: 2 entries already listed.
Potency, inconclusive:
CCNC(=O)NC(=O)C(C)Sc1nc2ccccc2n1CC(C)C (stereo unspecified) 12.6 µM [activator, single point]
Cc1cc(NS(=O)(=O)c2ccc(NC(=O)COc3ccccc3C(C)C)cc2)no1 11.2 µM [activator, partial curve]

Following part.

Activity change, negative = inhibition, inactive:
C=CCn1cc(C(=O)OCC)c(=O)c2ccc(F)cc21 -2.47%
Cc1nc(C(=O)NNC(=O)Nc2ccc(Cl)cc2)cs1 12.8%
COC(=O)c1ccc(CSc2ccc3nnc(-c4ccc(F)cc4)n3n2)o1 -1%
O=C(NCC1OCCc2ccccc21)c1ccc(NC(=O)c2ccccc2Cl)cc1 (stereo unspecified) 25.3%
CCOc1ccc(NC(=O)C(C)NS(=O)(=O)c2ccc(NC(C)=O)cc2)cc1 (stereo unspecified) -13.6%
Oc1ccc(OCc2ccccc2)cc1 1.72% [at 2.98 µM]
CCOc1cccc2cc(-c3csc(NC(=O)CCC(=O)N4CCC(C)CC4)n3)c(=O)oc12 -15.7%
CSc1ccc(NC(=O)c2cccnc2)cc1C#N 33.2%
COCCN1C(=O)c2ccc(C(=O)Nc3nccs3)cc2C1=O -32.5%
Cc1cccc(-n2c(O)c(C=Nc3ccccc3)c3ccccc3c2=O)n1 11.9%
N#CC1=C(N)Oc2c(ccc3cccnc23)C1c1ccccc1 (stereo unspecified) -25.1%
